PubChem BioAssay AID504793 | Drosophila RNAi Screening Center, 2011

- Screen: 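Knock-downs allowing continued mitosis even though DNA is damaged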 (primary screen)
- Cells: Drosophila S2R+ cells
- Knock-down reagent: long dsRNA against Drosophila genes, about 0.25 µg dsRNA per well
- Time to read-out: 4 days of dsRNA, then 4 hours of drug before read-out
- Treatment: doxorubicin 0.5 µM for 4 hours to cause double-strand breaks, in cells also given a low, harmless dose of dsRNA against nbs to sensitise the assay
- Read-out: 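Per-well count of mitotic cells stained for phospho-histone H3 after doxorubicin exposure, used as mitotic index; counts are raw and not normalised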
- Direction: mitotic cells: higher = more cells in mitosis, weaker G2 arrest
- Active means: 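Genes are called active only when high mitotic counts were reproduced with independent dsRNAs and mitosis was checked for delay without damage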
- Meaning of the calls: active = confirmed in follow-up tests; inactive = not confirmed
In all, the deposit lists about 23,000 reagents; shown is an unselected part of those with a known target gene and a result. Over the whole deposit, 62 (0.27%) are marked active. 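Calls come from follow-up tests whose scores are not deposited, so confirmed genes may have low counts here; counts are not normalised per plate.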 Raw values are not corrected between plates. A plus sign joins genes that one reagent is predicted to hit.

no.	gene knocked down	amplicon	mitotic cells, replicate 1	mitotic cells, replicate 2	Outcome
1	Sirt2	DRSC15714	10		inactive
2	Sirt2	DRSC26964	3		inactive
3	RabGGTb	DRSC00804	7		inactive
4	RabGGTb	DRSC29549	8		inactive
5	CG4806	DRSC04491	4		inactive
6	ttm3	DRSC03736	7		inactive
7	CG14692	DRSC14915	4		inactive
8	Ets98B	DRSC16666	9		inactive
9	Ets98B	DRSC24625	5		inactive
10	CG15414	DRSC00429	3		inactive
11	CG15414	DRSC22353	4		inactive
12	CG15414	DRSC28498	10		inactive
13	Ndfip	DRSC11201	9		inactive
14	CG9119	DRSC08620	3		inactive
15	CG9119	DRSC25290	8		inactive
16	lin-28	DRSC10261	5		inactive
17	CG10581	DRSC11623	3		inactive
18	Obp83ef	DRSC12268	10		inactive
19	Obp83ef	DRSC30027	8		inactive
20	pont	DRSC17029	40		active
21	CG13229	DRSC06349	8		inactive
22	CG4653	DRSC19909	7		inactive
23	CG4653	DRSC22857	10		inactive
24	CG4653	DRSC24329	6		inactive
25	CG12301	DRSC09875	6		inactive
26	CG14332	DRSC14811	9		inactive
27	Ktl	DRSC14270	6		inactive
28	betaTub85D	DRSC16910	135		inactive
29	betaTub85D	DRSC25043	8		inactive
30	cnn	DRSC05422	9		inactive
31	cnn	DRSC07596	10		inactive
32	Cortactin	DRSC16612	5		inactive
33	Cortactin	DRSC28012	7		inactive
34	CG11414	DRSC04110	6		inactive
35	Polr2F	DRSC12366	17		active
36	Polr2F	DRSC28784	12		inactive
37	RYBP	DRSC04117	11		inactive
38	RYBP	DRSC27464	2		inactive
39	Sply	DRSC07299	12		inactive
40	Sply	DRSC27378	8		inactive
41	CG32204	DRSC09574	4		inactive
42	CG32204	DRSC23663	6		inactive
43	CG1801	DRSC20556	8		inactive
44	CG1360	DRSC06406	8		inactive
45	CG1360	DRSC29406	8		inactive
46	osp	DRSC01409	6		inactive
47	osp	DRSC03585	2		inactive

Entries above whose gene name starts with S or s:
gene knocked down	amplicon	mitotic cells, replicate 1	mitotic cells, replicate 2	Outcome
Sirt2	DRSC15714	10		inactive
Sirt2	DRSC26964	3		inactive
Sply	DRSC07299	12		inactive
Sply	DRSC27378	8		inactive

The listing continues.
no.	gene knocked down	amplicon	mitotic cells, replicate 1	mitotic cells, replicate 2	Outcome
48	CG10300	DRSC14225	10		inactive
49	MFS15	DRSC06523	8		inactive
50	MFS15	DRSC28274	5		inactive
51	CG32228	DRSC22296	11		inactive
52	CG10864	DRSC14273	9		inactive
53	CG10029	DRSC12498	3		inactive
54	CG1998	DRSC19829	9		inactive
55	CG12419 (retired record)	DRSC14513	5		inactive
56	CG12419 (retired record)	DRSC23888	2		inactive
57	ghi	DRSC08985	6	7	inactive
58	CG8854	DRSC07288	2		inactive
59	CG8854	DRSC24639	5		inactive
60	Vinc	DRSC18728	9		inactive
61	iPLA2-VIA	DRSC10699	6		inactive
62	CG1537	DRSC19662	5		inactive
63	CG6293	DRSC16011	11		inactive
64	CG6293	DRSC28774	9		inactive
65	CG14327	DRSC14806	8		inactive
66	CG32846	DRSC08012	12		inactive
67	CG32846	DRSC27074	6		inactive
68	CG3287 (retired record)	DRSC04991	5		inactive
69	sip2	DRSC03154	2		inactive
70	TTLL3A	DRSC02143	4		inactive
71	TTLL3A	DRSC28462	7		inactive
72	CG10993	DRSC19362	9		inactive
73	CG13299	DRSC09973	6		inactive
74	REG	DRSC20273	11		inactive
75	CG34195	DRSC06909	3		inactive
76	CG15753 (retired record)	DRSC22985	9		inactive
77	Ugt37C1	DRSC07416	5		inactive
78	Ugt37C1	DRSC24066	4		inactive
79	Sf3b3	DRSC08370	5		inactive
80	Ack-like	DRSC07500	7		inactive
81	CG7091	DRSC12944	34		inactive
82	CG7091	DRSC16197	5		inactive
83	CG8701	DRSC07237	3		inactive
84	TwdlO	DRSC16043	7		inactive
85	CG14135	DRSC10140	4		inactive
86	CG5162	DRSC19935	11		inactive
87	CG32554	DRSC22713	11		inactive
88	CG32554	DRSC29616	8		inactive
89	mRpL11	DRSC15482	5		inactive
90	LysX	DRSC08678	9		inactive
91	CG5715	DRSC15860	11		inactive
92	CG5715	DRSC26011	6		inactive
93	Graf	DRSC20131	6		inactive
94	CG6178	DRSC15984	9		inactive
95	CG12134	DRSC06109	8		inactive
96	CG12134	DRSC24332	5		inactive
97	CR42545	DRSC03709	4		inactive
98	CG8630	DRSC16441	5		inactive
99	CG8630	DRSC24081	5		inactive
100	KP78a + KP78b	DRSC16721	4		inactive
101	KP78a + KP78b	DRSC16722	3		inactive
102	CG33306	DRSC01899	6		inactive
103	CG33306	DRSC29187	6		inactive
104	regucalcin	DRSC20366	17		inactive
105	regucalcin	DRSC25592	6		inactive
106	CG12158	DRSC22933	11		inactive
107	dl	DRSC03521	8		inactive
108	dl	DRSC29023	6		inactive
109	CG7140	DRSC11799	3		inactive
110	CG10911	DRSC06008	10		inactive
111	mia	DRSC12137	2		inactive
112	CG11885	DRSC00329	11		inactive
113	CG17121	DRSC15176	11		inactive
114	Su(var)3-7	DRSC16872	10		inactive
115	Gasp	DRSC12349	8		inactive
116	Ephrin	DRSC17165	11		inactive
117	mTerf5	DRSC16209	3		inactive
118	flap	DRSC03918	4		inactive
119	flap	DRSC04087	9		inactive
120	MtnA	DRSC21588	6		inactive
121	Dlic	DRSC19824	72		inactive
122	Rcd5	DRSC08180	11		active
123	Rcd5	DRSC27788	20		active
124	CG31706	DRSC22704	6		inactive
125	Tim23	DRSC21240	13		inactive
126	eEF5	DRSC04681	5		inactive
127	CG3927 + nsr	DRSC27267	9		inactive
128	CG10026	DRSC02010	7		inactive
129	BBS9	DRSC04257	2		inactive
130	BBS9	DRSC27789	4		inactive
131	Fgop2	DRSC02016	5		inactive
132	CG31551	DRSC12159	11		inactive
133	CG31551	DRSC22403	5		inactive
134	CG31551	DRSC27808	6		inactive
135	Pfdn6	DRSC10915	3		inactive
136	CG12702	DRSC19487	8		inactive
137	CG12702	DRSC27645	10		inactive
138	CG14054	DRSC17909	17		inactive
139	Ip259	DRSC03352	11		inactive
140	CG13931	DRSC08400	7		inactive
141	CG13931	DRSC25534	5		inactive
